Source: PubChem BioAssay
The list shows a part of the results. Shown are side measurements of this screen, not its main read-out; they come without a call. The list favours compounds with an active or inconclusive main result.

test: selective SMN2 exon splicing luciferase activators – cell-based, SMN2/SMN1 luciferase reporters (AID 1598); conditions: SMN2 vs SMN1 luciferase splicing reporter cells, at 10 µM; SMN1 luciferase ratio: measured here: SMN1 luciferase reporter average; SMN2 luciferase ratio: measured here: SMN2 luciferase reporter average, stronger effect = higher value

Row | Structure (SMILES) | SMN1 luciferase ratio | SMN2 luciferase ratio
1 | CCN(CC)CCCC(C)Nc1ccnc2cc(Cl)ccc12 (stereo not drawn) | 0.91 | 0.79
2 | CC1=C(/C=C/C(C)=C/C=C/C(C)=C/CO)C(C)(C)CCC1 | 0.95 | 0.84
3 | c1ccc2[nH]c(-c3cscn3)nc2c1 | 1.16 | 1
4 | CC(C)OC(=O)C(C)(C)Oc1ccc(C(=O)c2ccc(Cl)cc2)cc1 | 0.85 | 0.82
5 | CCN1CCCC1CNC(=O)c1cc(S(N)(=O)=O)ccc1OC (stereo not drawn) | 0.82 | 0.88
6 | COc1ccccc1OCC(O)COC(N)=O (stereo not drawn) | 0.36 | 0.36
7 | CCC1(C)CC(=O)NC1=O (stereo not drawn) | 0.94 | 0.95
8 | CN1CCN(C2=Nc3cc(Cl)ccc3Nc3ccccc32)CC1 | 0.81 | 0.79
9 | C#C[C@]1(O)CCC2C3CCC4=Cc5oncc5C[C@]4(C)C3CC[C@@]21C (stereo partly drawn) | 0.93 | 0.87
10 | CC12CC3CC(C)(C1)CC(N)(C3)C2 | 0.82 | 1.01
11 | CCc1cc(C(N)=S)ccn1 | 0.92 | 0.93
12 | O=c1c(-c2ccc(O)cc2)coc2cc(O)ccc12 | 1.09 | 1.11
13 | O=C(O)c1cccnc1C(=O)O | 0.98 | 0.96
14 | COc1cc(OC)c2ccc(=O)oc2c1 | 0.91 | 0.8
15 | CC(C)NCC(O)c1ccc(O)c(O)c1 (stereo not drawn) | 0.97 | 0.99
16 | CC(C)NCC(O)COc1ccc(CC(N)=O)cc1 (stereo not drawn) | 0.88 | 1
17 | COC(=O)C(N)CS (stereo not drawn) | 0.93 | 0.85
18 | C[C@]12C=CC(=O)C=C1CCC1C3C[C@@H](O)[C@](O)(C(=O)CO)[C@@]3(C)C[C@H](O)[C@@]12F (stereo partly drawn) | 0.99 | 1.05
19 | O=C(O)c1cc(=O)c2c(OCC(O)COc3cccc4oc(C(=O)O)cc(=O)c34)cccc2o1 | 0.87 | 0.99

Exported with each value named: part of the list above
CCC1(C)CC(=O)NC1=O (stereo not drawn)
  SMN1 luciferase ratio: 0.94
  SMN2 luciferase ratio: 0.95
CN1CCN(C2=Nc3cc(Cl)ccc3Nc3ccccc32)CC1
  SMN1 luciferase ratio: 0.81
  SMN2 luciferase ratio: 0.79
